Data as given in article PMC10691294.
These are yes or no findings as the source states them, for the method shown. Binding seen in cells or lysates may run through a third protein. Some binding calls cover weakened binding; strength is not graded here. For part of these data: Where a sequence is shown, tags or fusion partners need not be part of it.

Chains of the proteins cited; added tags and fusions are not shown.
UniProt Q8N122: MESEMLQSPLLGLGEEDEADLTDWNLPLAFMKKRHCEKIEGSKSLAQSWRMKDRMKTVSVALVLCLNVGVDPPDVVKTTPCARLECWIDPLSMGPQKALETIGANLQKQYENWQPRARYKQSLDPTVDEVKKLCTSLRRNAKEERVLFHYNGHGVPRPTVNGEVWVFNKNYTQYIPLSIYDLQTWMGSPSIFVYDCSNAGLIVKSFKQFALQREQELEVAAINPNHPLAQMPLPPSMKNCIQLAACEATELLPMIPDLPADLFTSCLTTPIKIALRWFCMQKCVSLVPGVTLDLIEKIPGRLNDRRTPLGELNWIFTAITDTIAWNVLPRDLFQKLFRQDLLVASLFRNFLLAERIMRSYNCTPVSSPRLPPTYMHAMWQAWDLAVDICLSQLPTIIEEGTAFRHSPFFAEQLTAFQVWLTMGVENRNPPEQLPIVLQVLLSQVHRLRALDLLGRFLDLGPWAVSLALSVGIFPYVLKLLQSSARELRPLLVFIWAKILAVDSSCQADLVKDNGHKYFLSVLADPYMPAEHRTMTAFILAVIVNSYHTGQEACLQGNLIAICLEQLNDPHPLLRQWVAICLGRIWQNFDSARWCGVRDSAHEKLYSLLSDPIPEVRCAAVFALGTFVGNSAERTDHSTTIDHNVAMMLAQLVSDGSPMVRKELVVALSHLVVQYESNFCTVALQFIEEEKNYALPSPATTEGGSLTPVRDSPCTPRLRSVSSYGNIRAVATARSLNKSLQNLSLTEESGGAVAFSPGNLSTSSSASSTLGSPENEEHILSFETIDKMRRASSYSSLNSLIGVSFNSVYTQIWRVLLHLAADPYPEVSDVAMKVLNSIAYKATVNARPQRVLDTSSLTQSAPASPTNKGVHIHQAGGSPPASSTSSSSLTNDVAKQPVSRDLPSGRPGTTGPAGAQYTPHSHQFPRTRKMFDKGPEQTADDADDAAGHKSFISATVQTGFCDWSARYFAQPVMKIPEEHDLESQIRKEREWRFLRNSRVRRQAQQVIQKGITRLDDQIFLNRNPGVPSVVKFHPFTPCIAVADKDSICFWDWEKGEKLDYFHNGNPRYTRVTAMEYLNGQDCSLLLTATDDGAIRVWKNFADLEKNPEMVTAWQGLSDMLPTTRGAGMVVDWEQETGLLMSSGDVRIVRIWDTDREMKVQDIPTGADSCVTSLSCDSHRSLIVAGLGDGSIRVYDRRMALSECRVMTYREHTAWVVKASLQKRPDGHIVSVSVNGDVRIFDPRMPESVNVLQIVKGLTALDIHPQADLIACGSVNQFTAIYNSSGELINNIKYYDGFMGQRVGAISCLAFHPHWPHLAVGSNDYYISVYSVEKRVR

Legend:
[1] = biological target: T1, Ubiquitin-specific protease 22 (endogenous, SNU-449 cells) (human (endogenous in SNU-449)) (UniProt Q9UPT9); test: co-IP; endogenous proteins in SNU-449 cell lysates; lysates precleaned with IgG and Protein A+G agarose, immunoprecipitated with antibody (anti-USP22 for the mTORC1 components) and agarose at 4°C for 2 h, western blot
T1 sequence: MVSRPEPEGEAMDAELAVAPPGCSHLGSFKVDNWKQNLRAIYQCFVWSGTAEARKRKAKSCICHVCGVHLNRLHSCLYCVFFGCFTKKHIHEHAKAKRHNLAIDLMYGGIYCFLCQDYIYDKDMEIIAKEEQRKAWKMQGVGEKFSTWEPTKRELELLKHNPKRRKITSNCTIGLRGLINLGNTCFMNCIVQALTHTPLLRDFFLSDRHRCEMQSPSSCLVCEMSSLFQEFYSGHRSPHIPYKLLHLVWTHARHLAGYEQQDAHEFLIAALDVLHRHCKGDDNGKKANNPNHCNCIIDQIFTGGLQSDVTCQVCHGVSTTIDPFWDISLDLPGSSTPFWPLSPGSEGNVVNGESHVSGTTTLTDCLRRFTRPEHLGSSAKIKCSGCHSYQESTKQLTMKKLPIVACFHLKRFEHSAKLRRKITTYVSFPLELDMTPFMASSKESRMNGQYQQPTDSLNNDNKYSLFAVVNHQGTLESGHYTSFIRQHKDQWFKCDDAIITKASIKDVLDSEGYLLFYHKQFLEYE

Flag-tagged USP22 = biological target: T2, Flag-tagged USP22 (UniProt Q9UPT9); test: co-IP; HEK293T cells transfected with Flag-tagged USP22 and Myc-tagged FKBP12 plasmids; whole cell extracts immunoprecipitated with an anti-Myc or anti-Flag antibody, western blot
T2 sequence: T1 sequence

binding [1]	binding (Flag-tagged USP22)	Substance
binds	–	FK506-binding protein 12 (endogenous, SNU-449 cells) (from UniProt P62942 1-108)
–	binds	Myc-tagged FKBP12 (from UniProt P62942 1-108)
no binding	–	regulatory-associated protein of mTOR (endogenous, SNU-449 cells) (from UniProt Q8N122 1-1335)
